Source: the supplement of paper PMC10849652
This is one part of the list.

By UniProt entry, the sequences of proteins in these tests, tags left out. Where a name states a change or a piece, a line headed by the entry shows the natural chain unless it says otherwise.
UniProt P06733, whole entry, looked up: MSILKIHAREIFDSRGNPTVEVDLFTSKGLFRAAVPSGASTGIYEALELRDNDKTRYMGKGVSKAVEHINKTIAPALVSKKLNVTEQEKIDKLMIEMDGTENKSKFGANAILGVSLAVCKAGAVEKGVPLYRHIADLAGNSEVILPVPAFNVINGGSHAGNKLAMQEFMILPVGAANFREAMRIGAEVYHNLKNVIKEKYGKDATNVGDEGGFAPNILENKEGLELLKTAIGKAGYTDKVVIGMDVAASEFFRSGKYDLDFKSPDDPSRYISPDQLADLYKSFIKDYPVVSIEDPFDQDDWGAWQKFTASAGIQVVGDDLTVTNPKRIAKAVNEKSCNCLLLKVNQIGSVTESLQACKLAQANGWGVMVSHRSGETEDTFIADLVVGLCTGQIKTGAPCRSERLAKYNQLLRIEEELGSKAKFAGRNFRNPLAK
UniProt Q9UHF1: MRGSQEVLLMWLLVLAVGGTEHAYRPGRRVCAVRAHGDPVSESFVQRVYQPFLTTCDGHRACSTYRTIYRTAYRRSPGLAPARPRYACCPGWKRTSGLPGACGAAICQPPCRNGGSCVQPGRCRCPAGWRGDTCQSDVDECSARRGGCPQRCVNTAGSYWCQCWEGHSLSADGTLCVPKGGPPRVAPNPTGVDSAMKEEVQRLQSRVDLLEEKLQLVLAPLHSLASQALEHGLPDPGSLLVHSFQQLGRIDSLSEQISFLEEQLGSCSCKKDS
UniProt P41091, whole entry, looked up: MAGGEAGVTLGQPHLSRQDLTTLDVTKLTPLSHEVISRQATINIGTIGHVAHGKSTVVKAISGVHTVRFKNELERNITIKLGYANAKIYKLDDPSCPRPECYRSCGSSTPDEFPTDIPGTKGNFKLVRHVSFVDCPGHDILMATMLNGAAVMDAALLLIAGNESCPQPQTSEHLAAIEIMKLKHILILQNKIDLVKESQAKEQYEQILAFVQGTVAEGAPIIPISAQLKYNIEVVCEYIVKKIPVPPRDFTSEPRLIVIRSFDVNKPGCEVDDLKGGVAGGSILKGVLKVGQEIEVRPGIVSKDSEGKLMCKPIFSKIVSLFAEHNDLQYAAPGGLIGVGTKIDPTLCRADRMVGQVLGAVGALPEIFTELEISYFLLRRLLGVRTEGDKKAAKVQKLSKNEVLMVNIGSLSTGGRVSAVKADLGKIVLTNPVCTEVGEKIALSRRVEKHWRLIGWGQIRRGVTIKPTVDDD
UniProt Q08426: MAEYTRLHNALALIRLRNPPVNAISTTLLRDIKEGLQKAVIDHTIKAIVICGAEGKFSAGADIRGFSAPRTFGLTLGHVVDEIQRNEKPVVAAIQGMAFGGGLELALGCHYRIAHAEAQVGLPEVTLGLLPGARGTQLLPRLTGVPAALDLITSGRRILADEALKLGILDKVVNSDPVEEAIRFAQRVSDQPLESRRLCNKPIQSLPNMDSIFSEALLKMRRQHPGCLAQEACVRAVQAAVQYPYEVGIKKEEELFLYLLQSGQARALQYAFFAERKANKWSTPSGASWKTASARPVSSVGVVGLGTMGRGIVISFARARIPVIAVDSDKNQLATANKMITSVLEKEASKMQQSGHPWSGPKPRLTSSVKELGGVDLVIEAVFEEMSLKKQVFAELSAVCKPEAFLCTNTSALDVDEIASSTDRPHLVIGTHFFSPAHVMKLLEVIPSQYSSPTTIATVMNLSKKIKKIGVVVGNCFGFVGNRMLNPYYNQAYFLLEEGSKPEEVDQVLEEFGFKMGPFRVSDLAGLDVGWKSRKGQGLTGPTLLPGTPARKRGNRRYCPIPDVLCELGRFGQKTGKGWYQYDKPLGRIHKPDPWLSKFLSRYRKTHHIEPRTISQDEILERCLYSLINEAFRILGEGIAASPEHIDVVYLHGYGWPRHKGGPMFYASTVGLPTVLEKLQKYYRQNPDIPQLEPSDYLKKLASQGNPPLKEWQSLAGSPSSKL
UniProt P47813, whole entry, looked up: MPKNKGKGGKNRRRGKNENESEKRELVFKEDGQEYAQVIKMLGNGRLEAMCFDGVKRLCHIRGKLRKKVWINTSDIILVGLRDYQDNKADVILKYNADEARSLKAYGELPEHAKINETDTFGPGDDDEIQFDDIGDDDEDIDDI
UniProt P0DPD8: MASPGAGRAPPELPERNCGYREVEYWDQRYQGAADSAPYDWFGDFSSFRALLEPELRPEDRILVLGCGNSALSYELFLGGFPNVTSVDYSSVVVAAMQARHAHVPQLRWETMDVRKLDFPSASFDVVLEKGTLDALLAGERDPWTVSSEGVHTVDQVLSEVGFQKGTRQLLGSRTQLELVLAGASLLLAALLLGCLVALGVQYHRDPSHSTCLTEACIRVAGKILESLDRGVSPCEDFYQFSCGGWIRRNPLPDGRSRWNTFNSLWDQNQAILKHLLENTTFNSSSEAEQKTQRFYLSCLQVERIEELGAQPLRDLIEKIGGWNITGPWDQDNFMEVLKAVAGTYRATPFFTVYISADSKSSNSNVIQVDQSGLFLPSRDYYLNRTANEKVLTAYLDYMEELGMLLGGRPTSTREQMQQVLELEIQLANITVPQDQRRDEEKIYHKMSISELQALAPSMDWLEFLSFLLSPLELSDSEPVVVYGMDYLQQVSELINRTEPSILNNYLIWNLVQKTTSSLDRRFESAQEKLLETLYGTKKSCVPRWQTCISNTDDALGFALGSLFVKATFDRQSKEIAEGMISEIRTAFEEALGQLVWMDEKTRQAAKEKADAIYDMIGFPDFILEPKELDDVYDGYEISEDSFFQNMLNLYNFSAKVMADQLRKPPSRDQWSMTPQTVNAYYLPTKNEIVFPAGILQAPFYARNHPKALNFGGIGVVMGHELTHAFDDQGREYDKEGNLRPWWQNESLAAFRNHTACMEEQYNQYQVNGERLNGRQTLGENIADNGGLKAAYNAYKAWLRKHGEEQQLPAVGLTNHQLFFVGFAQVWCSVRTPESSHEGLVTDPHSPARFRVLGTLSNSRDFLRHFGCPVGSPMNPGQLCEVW
UniProt P23588, whole entry, looked up: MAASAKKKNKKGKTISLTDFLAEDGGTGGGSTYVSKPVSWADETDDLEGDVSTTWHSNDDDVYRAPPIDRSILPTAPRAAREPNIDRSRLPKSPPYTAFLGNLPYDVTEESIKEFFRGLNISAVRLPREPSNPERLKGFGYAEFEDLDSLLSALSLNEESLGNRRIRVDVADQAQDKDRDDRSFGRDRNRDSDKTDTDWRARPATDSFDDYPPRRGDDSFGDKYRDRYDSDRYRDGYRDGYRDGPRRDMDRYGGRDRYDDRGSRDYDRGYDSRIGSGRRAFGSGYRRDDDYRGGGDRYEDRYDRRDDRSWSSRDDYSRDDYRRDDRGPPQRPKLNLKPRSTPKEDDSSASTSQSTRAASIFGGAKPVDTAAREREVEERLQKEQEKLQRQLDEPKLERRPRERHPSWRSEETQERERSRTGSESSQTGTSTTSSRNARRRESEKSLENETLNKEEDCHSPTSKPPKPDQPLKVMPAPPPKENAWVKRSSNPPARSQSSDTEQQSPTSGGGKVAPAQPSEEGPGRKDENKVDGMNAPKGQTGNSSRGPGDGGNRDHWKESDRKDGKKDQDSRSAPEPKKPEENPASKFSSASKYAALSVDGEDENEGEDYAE
UniProt P68104, whole entry, looked up: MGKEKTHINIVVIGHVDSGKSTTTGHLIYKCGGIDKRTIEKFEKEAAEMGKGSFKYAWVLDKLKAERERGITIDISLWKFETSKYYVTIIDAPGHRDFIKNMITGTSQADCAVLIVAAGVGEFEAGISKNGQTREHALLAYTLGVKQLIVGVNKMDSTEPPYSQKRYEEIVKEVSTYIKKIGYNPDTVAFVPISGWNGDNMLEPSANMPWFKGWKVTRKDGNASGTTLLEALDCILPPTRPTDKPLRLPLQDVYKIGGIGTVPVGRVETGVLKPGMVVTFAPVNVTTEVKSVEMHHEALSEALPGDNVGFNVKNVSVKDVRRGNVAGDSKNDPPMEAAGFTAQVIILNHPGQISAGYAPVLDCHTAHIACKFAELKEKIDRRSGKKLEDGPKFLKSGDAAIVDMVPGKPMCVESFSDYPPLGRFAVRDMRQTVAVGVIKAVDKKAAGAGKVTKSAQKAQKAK
UniProt Q32P44: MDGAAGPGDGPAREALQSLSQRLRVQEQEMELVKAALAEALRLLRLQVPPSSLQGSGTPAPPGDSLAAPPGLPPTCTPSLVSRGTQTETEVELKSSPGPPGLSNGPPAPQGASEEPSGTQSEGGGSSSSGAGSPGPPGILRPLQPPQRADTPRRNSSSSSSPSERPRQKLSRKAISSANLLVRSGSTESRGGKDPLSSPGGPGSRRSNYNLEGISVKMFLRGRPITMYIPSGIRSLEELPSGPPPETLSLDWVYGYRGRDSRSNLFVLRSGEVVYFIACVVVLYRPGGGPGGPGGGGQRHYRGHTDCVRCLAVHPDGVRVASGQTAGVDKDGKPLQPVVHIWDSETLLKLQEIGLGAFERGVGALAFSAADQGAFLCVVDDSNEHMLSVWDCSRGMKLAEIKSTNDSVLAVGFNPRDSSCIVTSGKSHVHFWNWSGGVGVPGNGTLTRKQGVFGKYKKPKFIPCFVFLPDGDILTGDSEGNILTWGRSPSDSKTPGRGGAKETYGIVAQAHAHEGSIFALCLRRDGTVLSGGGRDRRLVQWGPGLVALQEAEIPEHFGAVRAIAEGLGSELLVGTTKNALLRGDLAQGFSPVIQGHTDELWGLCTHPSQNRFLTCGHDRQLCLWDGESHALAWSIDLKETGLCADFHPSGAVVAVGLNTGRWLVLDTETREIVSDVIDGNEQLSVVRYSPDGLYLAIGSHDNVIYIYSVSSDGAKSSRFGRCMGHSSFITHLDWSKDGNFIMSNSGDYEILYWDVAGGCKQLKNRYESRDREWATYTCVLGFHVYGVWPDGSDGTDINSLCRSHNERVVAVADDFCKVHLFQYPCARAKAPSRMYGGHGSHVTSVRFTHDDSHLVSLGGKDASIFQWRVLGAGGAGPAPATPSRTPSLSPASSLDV
UniProt O75822, whole entry, looked up: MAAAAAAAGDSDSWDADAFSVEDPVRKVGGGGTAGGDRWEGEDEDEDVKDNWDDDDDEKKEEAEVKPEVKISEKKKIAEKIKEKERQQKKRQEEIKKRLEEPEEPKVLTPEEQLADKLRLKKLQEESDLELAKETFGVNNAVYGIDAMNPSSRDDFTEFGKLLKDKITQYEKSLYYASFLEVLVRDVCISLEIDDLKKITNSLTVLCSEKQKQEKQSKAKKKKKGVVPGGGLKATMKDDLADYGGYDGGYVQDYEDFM
UniProt Q8NFI3: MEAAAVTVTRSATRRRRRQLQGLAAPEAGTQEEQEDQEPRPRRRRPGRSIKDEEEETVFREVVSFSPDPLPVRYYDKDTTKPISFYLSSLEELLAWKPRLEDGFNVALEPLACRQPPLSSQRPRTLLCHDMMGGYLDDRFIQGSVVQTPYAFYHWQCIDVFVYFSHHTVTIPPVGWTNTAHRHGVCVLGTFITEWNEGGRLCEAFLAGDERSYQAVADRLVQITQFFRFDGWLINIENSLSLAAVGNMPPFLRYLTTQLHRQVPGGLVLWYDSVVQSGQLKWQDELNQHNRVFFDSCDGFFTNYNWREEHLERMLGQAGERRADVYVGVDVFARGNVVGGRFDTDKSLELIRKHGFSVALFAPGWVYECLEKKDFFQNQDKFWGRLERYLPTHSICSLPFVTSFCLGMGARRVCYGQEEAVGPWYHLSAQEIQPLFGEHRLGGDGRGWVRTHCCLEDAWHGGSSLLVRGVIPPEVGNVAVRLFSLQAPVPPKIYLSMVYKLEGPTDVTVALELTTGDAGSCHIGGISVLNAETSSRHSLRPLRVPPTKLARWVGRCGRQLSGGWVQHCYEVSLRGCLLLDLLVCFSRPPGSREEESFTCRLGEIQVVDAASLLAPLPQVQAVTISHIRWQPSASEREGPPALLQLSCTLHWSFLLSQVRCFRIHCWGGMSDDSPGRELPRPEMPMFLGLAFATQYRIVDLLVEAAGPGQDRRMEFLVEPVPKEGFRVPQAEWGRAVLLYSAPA
UniProt O43402: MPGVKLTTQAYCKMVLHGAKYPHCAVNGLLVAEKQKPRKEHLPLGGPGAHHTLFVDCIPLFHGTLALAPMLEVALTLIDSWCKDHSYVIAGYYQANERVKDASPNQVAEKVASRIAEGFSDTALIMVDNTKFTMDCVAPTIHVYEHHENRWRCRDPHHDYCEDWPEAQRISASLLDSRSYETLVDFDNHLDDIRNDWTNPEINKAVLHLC
UniProt P24534: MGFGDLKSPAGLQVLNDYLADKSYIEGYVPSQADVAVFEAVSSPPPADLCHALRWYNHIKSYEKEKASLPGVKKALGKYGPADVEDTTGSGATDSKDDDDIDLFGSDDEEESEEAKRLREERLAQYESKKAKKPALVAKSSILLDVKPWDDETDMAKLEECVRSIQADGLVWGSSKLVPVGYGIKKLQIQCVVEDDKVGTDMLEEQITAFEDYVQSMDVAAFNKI
UniProt O60573: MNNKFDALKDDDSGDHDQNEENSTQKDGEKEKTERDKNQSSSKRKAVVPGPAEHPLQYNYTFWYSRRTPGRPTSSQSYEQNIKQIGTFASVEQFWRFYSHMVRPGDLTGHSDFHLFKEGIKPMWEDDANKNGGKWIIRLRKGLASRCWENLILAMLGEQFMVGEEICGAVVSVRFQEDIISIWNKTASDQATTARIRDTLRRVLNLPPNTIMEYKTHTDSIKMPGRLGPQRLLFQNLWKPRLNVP

These targets were tested with C1=CC=C(C=C1)[C@H](COC2=CC3=C(C=C2)NC(=O)N3)NC(=O)C4=CC=CN(C4=O)CC5=CC(=C(C=C5)F)F (assay: log2 fold change, soluble protein after heating vs DMSO (PISA); higher = thermal stabilisation; K562 cells, 10 uM, 30 min; active = over 0.2 and 3.5 SD of the protein, either way, in both replicates (recomputed)).
Outline: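 K562 cells (2×10^6 cells/mL) were treated with 10 μM compound for 30 min, and aliquots were heated for 3 min over 48°C-58°C. Pooled aliquots were extracted in PBS with 0.5% NP-40 at 4°C, and the supernatant after 21,000xg for 90 min was measured by TMTpro 16plex LC-MS/MS with channel sums equalised. Reported thermal stability, relative to control samples and from duplicates, is a log2 fold change.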

Q: ENO1 (UniProt P06733) was tested. Which log2 fold change did it give?
A: The log2 fold change was inactive: -0.024.

Q: For EGFL7 (UniProt Q9UHF1), which log2 fold change is on record?
A: The log2 fold change was inactive: 0.067.

Q: ENO2 (UniProt U3KQQ1) was tested. Which log2 fold change did it give?
A: Its log2 fold change is inactive: 0.015.

Q: Which log2 fold change does the source give for EIF2S3 (UniProt P41091) here?
A: The log2 fold change was inactive: 0.008.

Q: EEF1A2 (UniProt Q05639) was tested. Which log2 fold change did it give?
A: The log2 fold change was inactive: 0.002.

Q: How did the log2 fold change turn out when EHHADH (UniProt Q08426) was run?
A: The log2 fold change was inactive: -0.058.

Q: ELP3 (UniProt Q9H9T3) was tested. Which log2 fold change did it give?
A: Its log2 fold change is inactive: 0.011.

Q: For ENO1 isoform 2 (UniProt P06733), which log2 fold change is on record?
A: Its log2 fold change is inactive: 0.174.

Q: For EIF1AX (UniProt P47813), which log2 fold change is on record?
A: Its log2 fold change is inactive: -0.046.

Q: Which log2 fold change does the source give for EEF1AKMT4-ECE2 (UniProt P0DPD8) here?
A: The log2 fold change was inactive: 0.197.

Q: With EEF1AKMT2 (UniProt Q5JPI9) as the target, how does the log2 fold change read?
A: The log2 fold change was inactive: 0.196.

Q: Which log2 fold change does the source give for EIF1B (UniProt O60739) here?
A: The log2 fold change was inactive: -0.054.

Q: With ENO3 (UniProt P13929) as the target, how does the log2 fold change read?
A: Its log2 fold change is inactive: -0.02.

Q: For ELP6 (UniProt Q0PNE2), which log2 fold change is on record?
A: The log2 fold change was inactive: -0.014.

Q: EIF4EBP1 (UniProt Q13541) was tested. Which log2 fold change did it give?
A: The log2 fold change was inactive: 0.037.

Q: How did the log2 fold change turn out when EIF4B (UniProt P23588) was run?
A: Its log2 fold change is inactive: -0.003.

Q: For ELP2 isoform 6 (UniProt Q6IA86), which log2 fold change is on record?
A: The log2 fold change was inactive: -0.047.

Q: How did the log2 fold change turn out when ENSA isoform 3 (UniProt O43768) was run?
A: The log2 fold change was inactive: 0.

Q: For EEF2 (UniProt P13639), which log2 fold change is on record?
A: Its log2 fold change is inactive: -0.009.

Q: How did the log2 fold change turn out when EEF1A1 (UniProt P68104) was run?
A: The log2 fold change was inactive: 0.112.

Q: Which log2 fold change does the source give for EGLN1 (UniProt Q9GZT9) here?
A: Its log2 fold change is inactive: 0.055.

Q: EML3 isoform 2 (UniProt Q32P44) was tested. Which log2 fold change did it give?
A: The log2 fold change was inactive: -0.086.

Q: For ENOSF1 (UniProt Q7L5Y1), which log2 fold change is on record?
A: The log2 fold change was inactive: -0.04.

Q: For EPB41, A0A2R8Y6D0, which log2 fold change is on record?
A: The log2 fold change was inactive: 0.104.

Q: For EIF3A (UniProt Q14152), which log2 fold change is on record?
A: The log2 fold change was inactive: -0.058.

Q: How did the log2 fold change turn out when EMC4 (UniProt Q5J8M3) was run?
A: The log2 fold change was inactive: -0.021.

Q: ENPP2 isoform 2 (UniProt Q13822) was tested. Which log2 fold change did it give?
A: Its log2 fold change is inactive: 0.05.

Q: How did the log2 fold change turn out when EPB41 (UniProt P11171) was run?
A: Its log2 fold change is inactive: -0.012.

Q: How did the log2 fold change turn out when EIF3J (UniProt O75822) was run?
A: The log2 fold change was inactive: -0.034.

Q: How did the log2 fold change turn out when ENGASE (UniProt Q8NFI3) was run?
A: The log2 fold change was inactive: -0.005.

Q: EMC8 (UniProt O43402) was tested. Which log2 fold change did it give?
A: Its log2 fold change is inactive: 0.011.

Q: For EEF1B2 (UniProt P24534), which log2 fold change is on record?
A: The log2 fold change was inactive: -0.037.

Q: For EMC10 (UniProt Q5UCC4), which log2 fold change is on record?
A: Its log2 fold change is inactive: 0.065.

Q: With EIF3D (UniProt O15371) as the target, how does the log2 fold change read?
A: The log2 fold change was inactive: -0.053.

Q: For EIF4G3 isoform 3 (UniProt O43432), which log2 fold change is on record?
A: Its log2 fold change is inactive: -0.021.

Q: For EIF4E2 (UniProt O60573), which log2 fold change is on record?
A: The log2 fold change was inactive: -0.043.

Q: Which log2 fold change does the source give for EMP3 (UniProt P54852) here?
A: Its log2 fold change is inactive: 0.035.

Q: For EIF3E (UniProt P60228), which log2 fold change is on record?
A: The log2 fold change was inactive: -0.084.

Q: ELMOD2 (UniProt Q8IZ81) was tested. Which log2 fold change did it give?
A: Its log2 fold change is inactive: 0.037.
